These are yes or no findings as the source states them, for the method shown. Binding seen in cells or lysates may run through a third protein. Some entries that bind do so weakly or less than the wild type.
Tests used:
[1] = biological target: nuclear factor kappa B (NFκB) p65 (rat (endogenous in PC12)) (UniProt Q7TQN4); experiment: co-IP; endogenous proteins in total lysate of PC12 cells (wild type and Trpm8 knockdown; 37 °C or cold, 4 °C); lysate incubated with NFκB or TRPM8 antibodies at 4 °C for 1-24 h, protein G Plus-Agarose, washed with lysis buffer containing NP-40, Western blot
[2] = biological target: Transient Receptor Potential Melastatin-8 (TRPM8) (rat (endogenous in PC12)) (UniProt Q8R455); experiment: as above

Chains of the proteins cited; added tags and fusions are not shown.
UniProt Q7TQN4: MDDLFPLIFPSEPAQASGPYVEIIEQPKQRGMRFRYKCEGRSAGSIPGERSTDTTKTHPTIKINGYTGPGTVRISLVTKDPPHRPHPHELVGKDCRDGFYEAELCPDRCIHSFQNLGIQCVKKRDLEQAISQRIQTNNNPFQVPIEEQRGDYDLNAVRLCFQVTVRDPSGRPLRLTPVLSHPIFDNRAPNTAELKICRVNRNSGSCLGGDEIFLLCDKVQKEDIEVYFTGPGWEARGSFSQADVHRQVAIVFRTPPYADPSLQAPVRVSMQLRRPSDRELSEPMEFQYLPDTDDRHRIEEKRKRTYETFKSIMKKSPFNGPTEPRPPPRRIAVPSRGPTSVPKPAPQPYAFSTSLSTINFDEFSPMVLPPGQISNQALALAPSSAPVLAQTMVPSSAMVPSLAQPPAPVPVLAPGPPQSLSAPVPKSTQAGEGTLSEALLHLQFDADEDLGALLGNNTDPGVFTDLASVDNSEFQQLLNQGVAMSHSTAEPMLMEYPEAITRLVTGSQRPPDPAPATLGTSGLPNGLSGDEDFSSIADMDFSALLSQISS
UniProt Q8R455: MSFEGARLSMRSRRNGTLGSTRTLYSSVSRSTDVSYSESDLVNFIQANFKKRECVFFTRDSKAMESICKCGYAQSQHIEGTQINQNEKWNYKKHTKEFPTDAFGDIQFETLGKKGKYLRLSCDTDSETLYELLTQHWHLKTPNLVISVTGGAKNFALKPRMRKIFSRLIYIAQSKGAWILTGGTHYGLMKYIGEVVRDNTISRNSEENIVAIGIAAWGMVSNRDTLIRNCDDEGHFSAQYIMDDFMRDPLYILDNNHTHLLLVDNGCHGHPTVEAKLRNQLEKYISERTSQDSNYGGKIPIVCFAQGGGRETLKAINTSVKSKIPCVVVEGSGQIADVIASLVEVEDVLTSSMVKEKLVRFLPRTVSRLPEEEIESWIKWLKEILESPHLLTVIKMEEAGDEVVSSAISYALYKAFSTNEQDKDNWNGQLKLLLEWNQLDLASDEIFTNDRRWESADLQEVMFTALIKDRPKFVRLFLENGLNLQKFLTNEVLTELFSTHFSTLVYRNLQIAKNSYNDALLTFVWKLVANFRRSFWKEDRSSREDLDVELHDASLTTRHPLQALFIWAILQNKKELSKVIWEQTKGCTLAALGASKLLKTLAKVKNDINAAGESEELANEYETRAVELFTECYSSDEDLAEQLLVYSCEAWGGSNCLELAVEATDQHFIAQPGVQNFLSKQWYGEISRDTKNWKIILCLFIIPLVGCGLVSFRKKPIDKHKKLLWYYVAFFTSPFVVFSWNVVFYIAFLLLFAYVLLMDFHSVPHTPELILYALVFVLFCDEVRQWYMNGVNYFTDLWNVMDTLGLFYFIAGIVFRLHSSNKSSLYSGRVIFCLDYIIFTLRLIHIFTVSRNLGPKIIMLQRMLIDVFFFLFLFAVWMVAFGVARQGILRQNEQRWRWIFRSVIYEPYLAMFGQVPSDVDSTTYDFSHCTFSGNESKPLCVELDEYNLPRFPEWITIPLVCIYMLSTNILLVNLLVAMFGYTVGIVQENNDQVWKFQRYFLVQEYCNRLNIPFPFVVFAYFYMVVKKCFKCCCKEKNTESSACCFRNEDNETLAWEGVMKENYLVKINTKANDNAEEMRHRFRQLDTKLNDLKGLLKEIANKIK

| binding [1] | binding [2] | Substance |
| --- | --- | --- |
| binds |  | Transient Receptor Potential Melastatin-8 (TRPM8) (from UniProt Q8R455 1-1104) |
|  | binds | nuclear factor kappa B (NFκB) p65 (from UniProt Q7TQN4 1-550) |

Source: PMC5362914
